Test results reported in patent US9260534B2 (priority 2010, dated 2016).

Assay: general procedure: Fmoc solid-phase peptide synthesis; Rink-amide resin; HBTU-HOBt
Conditions: whole synthesis, scale 0.25 mmol

Q: For [Cys^21]Exendin-4, which crude mass is on record?
A: 719 mg
